Test results published in patent US7135472B2, “3-Heterocyclic benzylamide derivatives as potassium channel openers” (Bristol-Myers Squibb Company, priority 2002, dated 2006).
At least one compound was matched to its structure with a doubt left.

Target: T1, mKCNQ2 channels (Mus musculus, UniProt Q9Z351)
T1 construct: expressed in transfected cells
Test: KCNQ whole-cell patch-clamp recordings, HEK 293 stable cell line expressing mKCNQ2 channels
Type: cell-based
Details: mKCNQ2 currents, HEK 293, whole-cell patch clamp, Hill fit maximum current
Description: Whole-cell patch-clamp recordings were made from an HEK 293 stable cell line expressing mKCNQ2 channels, maintained in culture for 1–2 days. Patch pipettes had initial resistances of 2.5–4 MΩ. Currents were recorded with an EPC-9 amplifier (HEKA, Lambrecht, Germany) controlled with software (Pulse, HEKA) run on a standard lab PC. Series resistance compensation was used during current recording, and set at 80%. The series resistance (R) and cell capacitance (C) were determined electronically by subtracting the capacitive currents at the onset and offset of a 5 mV voltage step. The cancellation of whole-cell capacitive transients was virtually complete in all cells. Analog current signals were low-pass filtered at 2.9 kHz using a four-pole Bessel filter −3 dB) and stored on a local network server computer at a sampling rate of […]. All recordings were performed at room temperature (20–22° C.). The pipette solution contained (mM): KCl, 150; CaCl2, 2.5; EGTA, 5; MgCl2, 1; HEPES, 10; pH to 7.3 with KOH, and Osmolality of 290–300 mOsm. The extracellular solution contained (mM): NaCl, 140; KCl, 2.5; CaCl2, 2.5; MgCl2, 1; glucose, 10; HEPES, 10; pH to 7.3 with NaOH, and Osmolality of 305–310 mOsm […]

C[C@H](NC(=O)/C=C/c1ccccc1F)c1cccc(-n2cncn2)c1 [Example 2, (S)-3-(2-Fluoro-phenyl)-N-[1-(3-[1,2,4]triazol-1-yl-phenyl)-ethyl]-acrylamide]
Imax (%): 902%
